Assay results as given in article doi:10.1101/495762 (bioRxiv, 2018).
Results are given in words; binding and its absence hold for the method and conditions named. In cells and extracts the contact can be indirect. Some results given as binding are weak or reduced against the parent protein; the word gives no strength. Tags and fused reporters may be left off the sequences shown.

Tests used:
[1] = biological target: T1, Smc3(E570C) (S. cerevisiae) (UniProt P47037); assay: cross-linking
T1 sequence: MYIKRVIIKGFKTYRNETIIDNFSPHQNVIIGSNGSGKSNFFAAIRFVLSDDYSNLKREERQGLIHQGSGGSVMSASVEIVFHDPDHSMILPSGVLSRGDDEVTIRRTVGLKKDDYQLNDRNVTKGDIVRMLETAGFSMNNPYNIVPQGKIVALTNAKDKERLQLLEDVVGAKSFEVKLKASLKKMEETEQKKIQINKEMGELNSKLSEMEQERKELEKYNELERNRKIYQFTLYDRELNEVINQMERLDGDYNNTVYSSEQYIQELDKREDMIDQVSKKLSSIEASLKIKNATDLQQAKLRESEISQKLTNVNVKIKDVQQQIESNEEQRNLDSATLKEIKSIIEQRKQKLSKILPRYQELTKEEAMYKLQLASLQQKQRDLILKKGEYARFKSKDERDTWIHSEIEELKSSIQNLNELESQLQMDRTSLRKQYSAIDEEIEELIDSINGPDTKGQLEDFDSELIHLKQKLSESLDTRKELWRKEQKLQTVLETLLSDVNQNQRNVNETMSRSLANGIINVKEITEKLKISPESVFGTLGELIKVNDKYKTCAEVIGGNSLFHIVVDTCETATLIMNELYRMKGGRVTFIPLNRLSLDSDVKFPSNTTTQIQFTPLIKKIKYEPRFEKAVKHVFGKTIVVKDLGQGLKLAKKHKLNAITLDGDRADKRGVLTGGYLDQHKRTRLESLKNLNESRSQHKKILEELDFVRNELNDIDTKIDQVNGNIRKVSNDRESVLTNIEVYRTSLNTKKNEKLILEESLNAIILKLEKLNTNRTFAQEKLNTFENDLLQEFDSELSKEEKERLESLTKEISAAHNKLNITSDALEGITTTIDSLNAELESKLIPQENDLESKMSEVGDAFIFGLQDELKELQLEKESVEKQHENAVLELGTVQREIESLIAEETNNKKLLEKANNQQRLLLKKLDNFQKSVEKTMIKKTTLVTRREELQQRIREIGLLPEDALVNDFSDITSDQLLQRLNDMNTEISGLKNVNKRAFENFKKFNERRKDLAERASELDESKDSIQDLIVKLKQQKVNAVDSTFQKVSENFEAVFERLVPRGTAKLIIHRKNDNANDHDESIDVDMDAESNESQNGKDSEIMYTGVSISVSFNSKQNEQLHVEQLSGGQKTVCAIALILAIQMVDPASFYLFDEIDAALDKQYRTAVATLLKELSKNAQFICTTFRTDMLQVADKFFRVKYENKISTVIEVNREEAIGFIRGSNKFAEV

[2] = biological target: T2, acetylated Smc3(E570C) (S. cerevisiae) (UniProt P47037); assay: cross-linking
T2 sequence (chain, acetylated, residues not printed): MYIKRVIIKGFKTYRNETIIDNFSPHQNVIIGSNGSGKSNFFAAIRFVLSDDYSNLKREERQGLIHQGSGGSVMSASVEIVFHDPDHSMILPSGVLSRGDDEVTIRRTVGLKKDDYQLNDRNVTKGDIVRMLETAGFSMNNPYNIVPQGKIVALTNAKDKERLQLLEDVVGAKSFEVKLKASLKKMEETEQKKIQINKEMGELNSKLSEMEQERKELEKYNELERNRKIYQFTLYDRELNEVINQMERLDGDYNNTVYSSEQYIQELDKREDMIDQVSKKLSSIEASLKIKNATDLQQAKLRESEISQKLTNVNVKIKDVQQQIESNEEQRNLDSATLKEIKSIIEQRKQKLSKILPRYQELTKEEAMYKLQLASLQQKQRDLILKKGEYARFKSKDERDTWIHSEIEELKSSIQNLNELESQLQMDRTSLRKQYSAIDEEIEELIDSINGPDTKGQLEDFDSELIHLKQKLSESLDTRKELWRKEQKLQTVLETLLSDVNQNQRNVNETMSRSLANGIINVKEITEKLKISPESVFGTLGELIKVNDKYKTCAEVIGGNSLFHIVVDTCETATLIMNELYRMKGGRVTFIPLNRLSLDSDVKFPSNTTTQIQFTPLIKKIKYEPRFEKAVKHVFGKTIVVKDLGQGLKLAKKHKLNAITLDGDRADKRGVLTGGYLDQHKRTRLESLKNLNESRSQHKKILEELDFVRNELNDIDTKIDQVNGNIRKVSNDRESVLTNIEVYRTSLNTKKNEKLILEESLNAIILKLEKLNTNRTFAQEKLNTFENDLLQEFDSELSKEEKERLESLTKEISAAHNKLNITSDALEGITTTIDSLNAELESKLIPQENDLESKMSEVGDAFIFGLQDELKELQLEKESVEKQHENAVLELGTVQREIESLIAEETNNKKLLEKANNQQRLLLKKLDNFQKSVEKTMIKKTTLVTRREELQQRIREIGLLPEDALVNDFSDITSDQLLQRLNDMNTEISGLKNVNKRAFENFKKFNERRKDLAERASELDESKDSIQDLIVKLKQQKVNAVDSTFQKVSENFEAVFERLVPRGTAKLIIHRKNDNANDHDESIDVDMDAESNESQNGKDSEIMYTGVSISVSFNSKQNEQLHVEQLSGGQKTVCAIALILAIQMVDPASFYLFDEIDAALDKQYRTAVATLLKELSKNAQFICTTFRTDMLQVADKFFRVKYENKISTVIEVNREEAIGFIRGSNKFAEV

- binding [1]: binds
- binding [2]: binds
B1: Smc1(K639C)-HA (protein, UniProt P32908 1-1225)
chain: MGRLVGLELSNFKSYRGVTKVGFGESNFTSIIGPNGSGKSNMMDAISFVLGVRSNHLRSNILKDLIYRGVLNDENSDDYDNEGAASSNPQSAYVKAFYQKGNKLVELMRIISRNGDTSYKIDGKTVSYKDYSIFLENENILIKAKNFLVFQGDVEQIAAQSPVELSRMFEEVSGSIQYKKEYEELKEKIEKLSKSATESIKNRRRIHGELKTYKEGINKNEEYRKQLDKKNELQKFQALWQLYHLEQQKEELTDKLSALNSEISSLKGKINNEMKSLQRSKSSFVKESAVISKQKSKLDYIFKDKEKLVSDLRLIKVPQQAAGKRISHIEKRIESLQKDLQRQKTYVERFETQLKVVTRSKEAFEEEIKQSARNYDKFKLNENDLKTYNCLHEKYLTEGGSILEEKIAVLNNDKREIQEELERFNKRADISKRRITEELSITGEKLDTQLNDLRVSLNEKNALHTERLHELKKLQSDIESANNQEYDLNFKLRETLVKIDDLSANQRETMKERKLRENIAMLKRFFPGVKGLVHDLCHPKKEKYGLAVSTILGKNFDSVIVENLTVAQECIAFLKKQRAGTASFIPLDTIETELPTLSLPDSQDYILSINAIDYEPEYEKAMQYVCGDSIICNTLNIACDLKWKKGIRGKLVTIEGALIHKAGLMTGGISGDANNRWDKEEYQSLMSLKDKLLIQIDELSNGQRSNSIRAREVENSVSLLNSDIANLRTQVTQQKRSLDENRLEIKYHNDLIEKEIQPKITELKKKLDDLENTKDNLVKEKEALQNNIFKEFTSKIGFTIKEYENHSGELMRQQSKELQQLQKQILTVENKLQFETDRLSTTQRRYEKAQKDLENAQVEMKSLEEQEYAIEMKIGSIESKLEEHKNHLDELQKKFVTKQSELNSSEDILEDMNSNLQVLKRERDGIKEDIEKFDLERVTALKNCKISNINIPISSETTIDDLPISSTDNEAITISNSIDINYKGLPKKYKENNTDSARKELEQKIHEVEEILNELQPNARALERYDEAEGRFEVINNETEQLKAEEKKILNQFLKIKKKRKELFEKTFDYVSDHLDAIYRELTKNPNSNVELAGGNASLTIEDEDEPFNAGIKYHATPPLKRFKDMEYLSGGEKTVAALALLFAINSYQPSPFFVLDEVDAALDITNVQRIAAYIRRHRNPDLQFIVISLKNTMFEKSDALVGVYRQQQENSSKIITLDLSNYAE
